Binding data for two substances are collected here from article PMC7031652.

Chains of the proteins cited; added tags and fusions are not shown.
UniProt A0A6B9QR77: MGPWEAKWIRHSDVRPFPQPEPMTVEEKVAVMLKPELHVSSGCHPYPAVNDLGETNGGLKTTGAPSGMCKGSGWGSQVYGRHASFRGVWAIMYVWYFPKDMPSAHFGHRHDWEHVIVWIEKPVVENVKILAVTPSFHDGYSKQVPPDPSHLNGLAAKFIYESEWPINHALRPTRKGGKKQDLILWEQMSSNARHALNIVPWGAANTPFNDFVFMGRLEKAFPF
UniProt A0A6G7KUU3: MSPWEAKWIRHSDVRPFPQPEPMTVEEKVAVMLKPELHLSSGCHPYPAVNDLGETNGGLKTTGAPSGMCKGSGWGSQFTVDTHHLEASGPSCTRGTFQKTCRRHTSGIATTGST

These are yes or no findings as the source states them, for the method shown. Binding seen in cells or lysates may run through a third protein.

Test [1] has as its target PvNLP3 (Plasmopara viticola necrosis and ethylene inducing peptide 1-like protein 3), tagged with a fluorescent protein (Plasmopara viticola). Kind of test: co-IP.
Test [2] concerns the target PvNLP1 (Plasmopara viticola necrosis and ethylene inducing peptide 1-like protein 1), tagged with a fluorescent protein (Plasmopara viticola). The test is described as follows: co-IP.

With “PvNLP3 (Plasmopara viticola necrosis and ethylene inducing peptide 1-like protein 3), tagged with a fluorescent protein (from UniProt A0A6B9QR77 1-223)”, in test [1], the binding entry was “no binding”. Turning to “PvNLP1 (Plasmopara viticola necrosis and ethylene inducing peptide 1-like protein 1), tagged with a fluorescent protein (from UniProt A0A6G7KUU3 1-114)”, the binding result in test [2] and in test [1] was “no binding” each time.
